Results as given in the supplement of paper PMC5836539.
± gives the standard deviation of the averaged measurements. Most values lie within the scatter of the assay; repeated measurements hardly agree.

Amino acid sequences for entries named in this document (tags omitted). A change or cut given only in a name is not applied to a line headed by its entry.
UniProt P08238, whole entry, looked up: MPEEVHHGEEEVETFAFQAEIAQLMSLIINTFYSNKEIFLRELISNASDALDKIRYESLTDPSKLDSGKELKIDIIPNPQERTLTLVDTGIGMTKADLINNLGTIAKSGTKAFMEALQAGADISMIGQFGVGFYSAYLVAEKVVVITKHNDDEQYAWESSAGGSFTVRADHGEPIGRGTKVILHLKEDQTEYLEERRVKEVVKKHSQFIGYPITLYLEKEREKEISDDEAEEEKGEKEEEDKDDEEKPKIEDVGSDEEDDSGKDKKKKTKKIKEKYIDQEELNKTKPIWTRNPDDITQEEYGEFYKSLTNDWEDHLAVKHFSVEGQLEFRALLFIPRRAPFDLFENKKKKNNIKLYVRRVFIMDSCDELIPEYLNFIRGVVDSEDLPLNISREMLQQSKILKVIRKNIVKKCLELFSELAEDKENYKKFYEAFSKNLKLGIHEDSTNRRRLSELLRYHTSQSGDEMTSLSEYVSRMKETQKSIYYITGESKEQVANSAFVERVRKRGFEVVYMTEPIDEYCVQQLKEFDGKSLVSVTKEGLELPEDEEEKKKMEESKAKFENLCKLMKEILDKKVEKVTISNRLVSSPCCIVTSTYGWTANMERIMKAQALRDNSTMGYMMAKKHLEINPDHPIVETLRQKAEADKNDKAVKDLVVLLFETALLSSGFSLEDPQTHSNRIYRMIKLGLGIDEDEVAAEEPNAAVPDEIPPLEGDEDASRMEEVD
UniProt O43719: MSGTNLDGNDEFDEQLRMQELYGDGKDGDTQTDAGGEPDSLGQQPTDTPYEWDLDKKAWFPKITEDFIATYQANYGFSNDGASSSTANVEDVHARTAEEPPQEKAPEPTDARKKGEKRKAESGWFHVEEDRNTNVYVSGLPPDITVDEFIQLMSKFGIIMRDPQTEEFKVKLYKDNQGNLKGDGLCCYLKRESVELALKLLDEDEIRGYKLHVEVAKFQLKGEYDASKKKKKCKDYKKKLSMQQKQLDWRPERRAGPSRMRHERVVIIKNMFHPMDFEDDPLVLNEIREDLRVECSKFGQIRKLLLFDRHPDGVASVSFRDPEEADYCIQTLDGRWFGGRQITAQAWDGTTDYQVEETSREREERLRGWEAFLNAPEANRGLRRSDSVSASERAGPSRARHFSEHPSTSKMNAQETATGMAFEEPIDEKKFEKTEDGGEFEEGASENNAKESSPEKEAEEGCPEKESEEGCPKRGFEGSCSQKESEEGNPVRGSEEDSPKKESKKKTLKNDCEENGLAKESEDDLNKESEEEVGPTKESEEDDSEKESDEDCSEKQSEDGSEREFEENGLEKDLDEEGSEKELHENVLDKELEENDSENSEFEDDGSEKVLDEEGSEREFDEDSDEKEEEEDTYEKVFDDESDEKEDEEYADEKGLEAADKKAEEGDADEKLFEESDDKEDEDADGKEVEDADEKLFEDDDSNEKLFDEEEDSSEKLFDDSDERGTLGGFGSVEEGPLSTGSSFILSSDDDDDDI
UniProt Q9Y2H2: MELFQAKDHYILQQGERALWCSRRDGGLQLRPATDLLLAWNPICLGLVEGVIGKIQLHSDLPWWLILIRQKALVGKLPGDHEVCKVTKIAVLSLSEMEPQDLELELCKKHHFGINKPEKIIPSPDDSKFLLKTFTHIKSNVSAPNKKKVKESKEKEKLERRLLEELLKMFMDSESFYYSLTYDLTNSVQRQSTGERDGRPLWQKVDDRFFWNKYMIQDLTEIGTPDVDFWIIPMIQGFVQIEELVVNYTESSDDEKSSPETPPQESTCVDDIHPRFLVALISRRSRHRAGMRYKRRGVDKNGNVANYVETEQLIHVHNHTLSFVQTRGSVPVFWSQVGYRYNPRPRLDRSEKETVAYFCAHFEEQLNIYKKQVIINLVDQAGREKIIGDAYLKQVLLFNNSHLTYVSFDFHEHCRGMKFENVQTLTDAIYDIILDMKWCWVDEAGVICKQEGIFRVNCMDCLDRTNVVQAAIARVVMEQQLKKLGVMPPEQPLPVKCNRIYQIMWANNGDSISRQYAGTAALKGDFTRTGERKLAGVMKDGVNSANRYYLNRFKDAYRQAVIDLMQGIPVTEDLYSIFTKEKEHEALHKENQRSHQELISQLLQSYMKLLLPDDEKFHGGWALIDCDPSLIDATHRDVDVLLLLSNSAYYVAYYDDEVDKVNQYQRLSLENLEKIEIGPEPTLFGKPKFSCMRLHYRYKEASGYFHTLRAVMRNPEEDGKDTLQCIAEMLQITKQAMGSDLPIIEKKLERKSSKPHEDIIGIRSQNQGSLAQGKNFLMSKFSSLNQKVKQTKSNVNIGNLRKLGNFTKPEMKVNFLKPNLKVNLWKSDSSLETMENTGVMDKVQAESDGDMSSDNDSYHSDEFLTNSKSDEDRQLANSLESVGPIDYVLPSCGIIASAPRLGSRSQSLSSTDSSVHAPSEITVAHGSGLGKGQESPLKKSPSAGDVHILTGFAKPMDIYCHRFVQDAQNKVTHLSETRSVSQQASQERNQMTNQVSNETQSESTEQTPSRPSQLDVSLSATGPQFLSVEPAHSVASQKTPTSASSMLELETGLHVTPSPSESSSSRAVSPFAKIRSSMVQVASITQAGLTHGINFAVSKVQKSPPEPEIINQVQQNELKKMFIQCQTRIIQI
UniProt P09382, whole entry: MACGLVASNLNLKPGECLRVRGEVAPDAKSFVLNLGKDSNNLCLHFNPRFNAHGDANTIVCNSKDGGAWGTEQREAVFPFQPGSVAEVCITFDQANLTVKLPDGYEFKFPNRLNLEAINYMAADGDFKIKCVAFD
UniProt O60711: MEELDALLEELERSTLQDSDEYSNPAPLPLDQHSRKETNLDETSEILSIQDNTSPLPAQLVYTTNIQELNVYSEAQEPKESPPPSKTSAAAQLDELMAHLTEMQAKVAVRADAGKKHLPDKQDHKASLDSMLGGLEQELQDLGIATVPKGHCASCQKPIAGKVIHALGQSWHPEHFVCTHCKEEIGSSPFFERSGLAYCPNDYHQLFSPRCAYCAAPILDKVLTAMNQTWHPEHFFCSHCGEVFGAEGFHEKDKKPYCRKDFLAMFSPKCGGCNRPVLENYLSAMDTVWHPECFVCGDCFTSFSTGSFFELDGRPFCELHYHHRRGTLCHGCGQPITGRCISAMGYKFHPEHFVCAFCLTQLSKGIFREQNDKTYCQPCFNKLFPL
UniProt P46821: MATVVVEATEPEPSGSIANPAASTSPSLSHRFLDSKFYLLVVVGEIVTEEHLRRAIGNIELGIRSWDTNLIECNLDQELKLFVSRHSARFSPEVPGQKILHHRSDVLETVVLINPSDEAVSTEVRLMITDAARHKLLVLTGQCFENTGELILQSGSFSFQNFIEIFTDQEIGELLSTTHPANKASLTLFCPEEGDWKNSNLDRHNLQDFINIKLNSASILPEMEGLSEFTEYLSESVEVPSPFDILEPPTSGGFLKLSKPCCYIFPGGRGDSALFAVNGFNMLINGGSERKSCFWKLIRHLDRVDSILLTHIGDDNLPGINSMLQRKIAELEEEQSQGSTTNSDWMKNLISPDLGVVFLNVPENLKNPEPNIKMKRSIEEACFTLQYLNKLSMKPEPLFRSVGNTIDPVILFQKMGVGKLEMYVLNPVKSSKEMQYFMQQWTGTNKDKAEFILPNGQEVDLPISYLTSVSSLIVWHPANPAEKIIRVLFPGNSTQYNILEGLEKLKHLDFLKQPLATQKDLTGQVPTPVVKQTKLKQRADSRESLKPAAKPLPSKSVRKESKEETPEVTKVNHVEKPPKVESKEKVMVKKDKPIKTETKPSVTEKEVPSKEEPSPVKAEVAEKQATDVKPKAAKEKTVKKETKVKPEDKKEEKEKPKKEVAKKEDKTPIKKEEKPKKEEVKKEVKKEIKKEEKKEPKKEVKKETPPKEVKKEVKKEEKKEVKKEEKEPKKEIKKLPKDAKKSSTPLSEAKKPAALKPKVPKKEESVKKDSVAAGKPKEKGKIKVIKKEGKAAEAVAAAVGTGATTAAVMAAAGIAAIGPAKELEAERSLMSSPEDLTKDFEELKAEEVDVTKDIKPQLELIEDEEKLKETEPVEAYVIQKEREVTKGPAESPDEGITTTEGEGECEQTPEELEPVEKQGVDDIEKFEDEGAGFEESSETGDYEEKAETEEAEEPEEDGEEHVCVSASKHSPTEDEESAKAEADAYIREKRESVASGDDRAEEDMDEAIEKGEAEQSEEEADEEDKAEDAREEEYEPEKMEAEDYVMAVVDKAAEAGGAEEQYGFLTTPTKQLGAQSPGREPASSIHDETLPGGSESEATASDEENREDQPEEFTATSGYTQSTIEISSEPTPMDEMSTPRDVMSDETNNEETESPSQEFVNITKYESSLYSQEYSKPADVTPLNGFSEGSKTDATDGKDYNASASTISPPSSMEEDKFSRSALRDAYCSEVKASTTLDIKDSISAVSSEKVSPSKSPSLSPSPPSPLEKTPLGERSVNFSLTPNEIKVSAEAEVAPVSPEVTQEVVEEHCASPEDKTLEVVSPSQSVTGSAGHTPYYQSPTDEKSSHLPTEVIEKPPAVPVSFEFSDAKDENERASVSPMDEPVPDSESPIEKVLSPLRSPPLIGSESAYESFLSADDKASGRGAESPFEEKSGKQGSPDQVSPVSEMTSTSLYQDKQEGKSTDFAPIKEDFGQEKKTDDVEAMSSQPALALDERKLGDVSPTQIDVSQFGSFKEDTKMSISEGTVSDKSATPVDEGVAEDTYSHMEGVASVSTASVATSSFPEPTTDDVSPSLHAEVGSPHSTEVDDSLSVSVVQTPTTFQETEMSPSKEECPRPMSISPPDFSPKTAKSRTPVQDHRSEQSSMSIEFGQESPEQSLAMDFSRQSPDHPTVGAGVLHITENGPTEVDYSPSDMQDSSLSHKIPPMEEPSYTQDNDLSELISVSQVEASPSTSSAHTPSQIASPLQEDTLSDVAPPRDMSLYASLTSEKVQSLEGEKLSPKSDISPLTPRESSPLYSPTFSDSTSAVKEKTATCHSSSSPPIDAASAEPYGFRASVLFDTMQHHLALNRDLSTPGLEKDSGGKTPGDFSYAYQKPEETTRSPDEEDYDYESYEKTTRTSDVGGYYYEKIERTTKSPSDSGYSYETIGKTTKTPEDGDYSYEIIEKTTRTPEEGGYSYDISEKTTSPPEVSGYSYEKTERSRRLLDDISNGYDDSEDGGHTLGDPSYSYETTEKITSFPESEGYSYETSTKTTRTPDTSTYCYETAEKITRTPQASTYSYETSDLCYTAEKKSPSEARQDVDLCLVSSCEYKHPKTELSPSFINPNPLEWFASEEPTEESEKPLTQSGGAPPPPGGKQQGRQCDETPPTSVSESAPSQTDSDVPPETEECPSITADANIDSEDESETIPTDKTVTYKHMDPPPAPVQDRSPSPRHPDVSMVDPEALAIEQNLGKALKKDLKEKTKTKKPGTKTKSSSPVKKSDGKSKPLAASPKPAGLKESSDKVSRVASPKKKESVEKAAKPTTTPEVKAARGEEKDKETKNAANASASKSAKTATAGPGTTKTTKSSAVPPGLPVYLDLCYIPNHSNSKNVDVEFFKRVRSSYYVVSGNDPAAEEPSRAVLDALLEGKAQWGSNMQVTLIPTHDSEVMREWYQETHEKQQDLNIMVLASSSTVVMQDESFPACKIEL
UniProt P49736, whole entry, looked up: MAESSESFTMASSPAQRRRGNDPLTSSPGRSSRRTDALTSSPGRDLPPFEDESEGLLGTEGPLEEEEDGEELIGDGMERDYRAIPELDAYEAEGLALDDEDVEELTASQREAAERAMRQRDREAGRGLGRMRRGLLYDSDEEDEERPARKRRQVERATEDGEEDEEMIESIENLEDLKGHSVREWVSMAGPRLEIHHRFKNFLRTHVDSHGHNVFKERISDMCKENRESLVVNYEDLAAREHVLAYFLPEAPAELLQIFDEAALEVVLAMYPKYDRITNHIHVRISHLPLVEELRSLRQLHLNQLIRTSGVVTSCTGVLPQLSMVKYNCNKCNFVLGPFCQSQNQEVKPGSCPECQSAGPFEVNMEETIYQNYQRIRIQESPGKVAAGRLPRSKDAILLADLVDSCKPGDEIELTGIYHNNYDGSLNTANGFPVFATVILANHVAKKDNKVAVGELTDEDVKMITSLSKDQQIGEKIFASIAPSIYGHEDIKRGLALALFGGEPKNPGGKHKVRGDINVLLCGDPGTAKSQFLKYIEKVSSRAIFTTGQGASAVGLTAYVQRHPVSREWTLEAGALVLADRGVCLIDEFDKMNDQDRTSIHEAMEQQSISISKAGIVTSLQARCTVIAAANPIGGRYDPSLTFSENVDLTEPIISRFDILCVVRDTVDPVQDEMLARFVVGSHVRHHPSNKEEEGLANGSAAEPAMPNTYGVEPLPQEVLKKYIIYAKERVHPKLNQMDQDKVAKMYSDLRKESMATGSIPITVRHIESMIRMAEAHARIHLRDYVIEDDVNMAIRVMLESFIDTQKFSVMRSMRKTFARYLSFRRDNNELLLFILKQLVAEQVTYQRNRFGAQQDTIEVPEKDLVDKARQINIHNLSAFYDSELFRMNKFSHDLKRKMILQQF

What was measured:
XL888 [1] = compound: T1, CC[C@@H](C)Nc1cc(C(=O)N[C@H]2C[C@H]3CC[C@@H](C2)N3c2ccc(C(=O)C3CC3)cn2)c(C)cc1C(N)=O [XL888]; experiment: phosphopeptide melting temperature shift (XL888 minus DMSO); higher = stabilised by drug treatment; conditions: 100 µM; treatment time 2 h; layout: intact cells; SK-Mel 24
Method: (§1)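 Phospho-TPP in intact SK-Mel 24 cells treated with 100 uM XL888 or DMSO for 2 h, heated at 10 temperatures (37-67 C) for 3 min, soluble fraction TMT10plex-labelled and TiO2 phospho-enriched. Melting curves were fitted per phosphopeptide; the value is the melting point difference (drug minus vehicle) in each of two biological replicates.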

XL888 [2] = compound: T1, XL888; experiment: as above; conditions: 100 µM; treatment time 2 h; layout: intact cells; SK-Mel 28
Method: as §1, with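 “28” for “24”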

Row | Target | phosphopeptide melting temperature shift (XL888 [1]) | phosphopeptide melting temperature shift (XL888 [2])
1 | HSP90AB1 phosphosite_226 (phosphosite position: 226) (UniProt P08238) | 5.7 ± 0.83 °C | 5.336 ± 0.028 °C
2 | HSP90AB1 phosphosite_255 (phosphosite position: 255) (UniProt P08238) | 4.62 ± 0.43 °C | 5.02 ± 0.1 °C
3 | HSP90B1 phosphosite_306 (phosphosite position: 306) (UniProt P14625) | 2.92 °C | 1.43 °C
4 | HSPB1 phosphosite_82 (phosphosite position: 82) (UniProt P04792) | 0.631 °C | 2.71 °C
5 | HSPD1 phosphosite_70 (phosphosite position: 70) (UniProt P10809) | 0.155 °C | 0.464 °C
6 | HTATSF1 phosphosite_642 (phosphosite position: 642) (UniProt O43719) | 1.55 ± 0.51 °C | 0.96 ± 0.48 °C
7 | HTATSF1 phosphosite_676 (phosphosite position: 676) (UniProt O43719) | 0.839 °C | 2.46 °C
8 | HTATSF1 phosphosite_702 (phosphosite position: 702) (UniProt O43719) | 1.18 °C | 1.64 ± 0.49 °C
9 | IGF2R phosphosite_2409 (phosphosite position: 2409) (UniProt P11717) | -3.16 °C | 0.681 ± 1.4 °C
10 | IGF2R phosphosite_2484 (phosphosite position: 2484) (UniProt P11717) | -2.15 °C | -0.689 ± 1.4 °C
11 | ILF3 phosphosite_382 (phosphosite position: 382) (UniProt Q12906) | -0.792 °C | 1.59 ± 1.5 °C
12 | ILF3 phosphosite_482 (phosphosite position: 482) (UniProt Q12906) | 0.36 °C | -0.42 ± 0.47 °C
13 | INPP5F phosphosite_940 (phosphosite position: 940) (UniProt Q9Y2H2) | 0.431 ± 0.97 °C | 0.587 ± 0.1 °C
14 | INPP5F phosphosite_942 (phosphosite position: 942) (UniProt Q9Y2H2) | 0.191 ± 0.59 °C | 1.05 ± 0.046 °C
15 | IRF2BP1 phosphosite_453 (phosphosite position: 453) (UniProt Q8IU81) | 3.09 °C | 2.42 °C
16 | IRS2 phosphosite_915 (phosphosite position: 915) (UniProt Q9Y4H2) | -1.37 °C | 3.41 °C
17 | IVNS1ABP phosphosite_338 (phosphosite position: 338) (UniProt Q9Y6Y0) | -0.633 ± 0.21 °C | 0.531 °C
18 | IWS1 phosphosite_377 (phosphosite position: 377) (UniProt Q96ST2) | -1.54 °C | 1.11 ± 0.34 °C
19 | KLC2 phosphosite_582 (phosphosite position: 582) (UniProt Q9H0B6) | 0.45 °C | 0.16 ± 0.4 °C
20 | KPNA4 phosphosite_60 (phosphosite position: 60) (UniProt O00629) | -0.621 °C | 1.67 °C
21 | KRI1 phosphosite_171 (phosphosite position: 171) (UniProt Q8N9T8) | 0.313 °C | 0.858 ± 0.35 °C

Row | Target | phosphopeptide melting temperature shift (XL888 [1]) | phosphopeptide melting temperature shift (XL888 [2])
22 | LARP1 phosphosite_90 (phosphosite position: 90) (UniProt Q6PKG0) | 0.828 °C | 1.63 ± 1.2 °C
23 | LARP7 phosphosite_261 (phosphosite position: 261) (UniProt Q4G0J3) | 0.339 °C | 1.71 ± 0.51 °C
24 | LGALS1 phosphosite_30 (phosphosite position: 30) (UniProt P09382) | -0.907 °C | -0.155 °C
25 | LPXN phosphosite_19 (phosphosite position: 19) (UniProt O60711) | -1.19 °C | 4.62 ± 1 °C
26 | LRWD1 phosphosite_243 (phosphosite position: 243) (UniProt Q9UFC0) | 0.718 °C | 0.22 ± 0.94 °C
27 | LYST phosphosite_2105 (phosphosite position: 2105) (UniProt Q99698) | 0.397 °C | 0.742 ± 0.69 °C
28 | MAP1B phosphosite_937 (phosphosite position: 937) (UniProt P46821) | -0.216 °C | 0.587 ± 0.98 °C
29 | MAP1B phosphosite_1016 (phosphosite position: 1016) (UniProt P46821) | 1.69 °C | 1.21 ± 0.24 °C
30 | MAP1B phosphosite_1501 (phosphosite position: 1501) (UniProt P46821) | 1.39 °C | 0.641 ± 1.8 °C
31 | MAP1B phosphosite_1819 (phosphosite position: 1819) (UniProt P46821) | 2.5 °C | -0.957 ± 0.054 °C
32 | MAP1B phosphosite_1915 (phosphosite position: 1915) (UniProt P46821) | 0.093 °C | 1.64 ± 1 °C
33 | MAP1B phosphosite_1965 (phosphosite position: 1965) (UniProt P46821) | 1.14 ± 0.44 °C | -1.74 °C
34 | MATR3 phosphosite_598 (phosphosite position: 598) (UniProt P43243) | -0.405 °C | 3.68 ± 3.8 °C
35 | MCM2 phosphosite_27 (phosphosite position: 27) (UniProt P49736) | 2.96 °C | -1.32 ± 0.63 °C
36 | MCM2 phosphosite_139 (phosphosite position: 139) (UniProt P49736) | -0.589 ± 0.046 °C | -0.25 ± 0.069 °C
37 | MCM3 phosphosite_672 (phosphosite position: 672) (UniProt P25205) | -0.991 °C | -1.49 °C
38 | MICAL3 phosphosite_685 (phosphosite position: 685) (UniProt Q7RTP6) | 1.21 °C | 1.28 ± 0.4 °C
39 | MIOS phosphosite_766 (phosphosite position: 766) (UniProt Q9NXC5) | 0.487 °C | 2.58 ± 0.8 °C
40 | MPHOSPH8 phosphosite_51 (phosphosite position: 51) (UniProt Q99549) | 2.46 °C | 0.727 °C
41 | MTDH phosphosite_426 (phosphosite position: 426) (UniProt Q86UE4) | 1.1 °C | 2.12 °C

Reprinted, nos. 14–16
Row | Target | phosphopeptide melting temperature shift (XL888 [1]) | phosphopeptide melting temperature shift (XL888 [2])
14 | INPP5F phosphosite_942 (phosphosite position: 942) (UniProt Q9Y2H2) | 0.191 ± 0.59 °C | 1.05 ± 0.046 °C
15 | IRF2BP1 phosphosite_453 (phosphosite position: 453) (UniProt Q8IU81) | 3.09 °C | 2.42 °C
16 | IRS2 phosphosite_915 (phosphosite position: 915) (UniProt Q9Y4H2) | -1.37 °C | 3.41 °C
